Data as given in PubChem BioAssay AID1259425 (University of Nebraska Medical Center, 2018).
In all, the deposit lists about 14,000 reagents; this is a part drawn at random. Not all columns of the deposit are shown. Not given: the time to read-out.

Aim: 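Compare each knockdown with KSR1 silencing using changes in marker transcripts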 (primary screen)
Cells: HCT116 human colon cancer cells
Knock-down reagent: siRNA pool against human genes, 50 nM siRNA
Detection: 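After 50 nM siRNA pool, branched-DNA assay measures six marker transcripts per well, minus blank, normalised to the geometric mean of two housekeeping transcripts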
Reading the numbers: BNIP3L mRNA: higher = more BNIP3L transcript after knockdown; NDRG1 mRNA: higher = more NDRG1 transcript after knockdown

{"Gene":"RRN3P1","PubChem SID":"SID364004652","BNIP3L mRNA, set 1":0.207,"NDRG1 mRNA, set 1":0.319}
{"Gene":"ZDHHC18","PubChem SID":"SID364005191","BNIP3L mRNA, set 1":0.281,"NDRG1 mRNA, set 1":0.572}
{"Gene":"NAA80","PubChem SID":"SID363998126","BNIP3L mRNA, set 1":0.0642,"NDRG1 mRNA, set 1":0.0745}
{"Gene":"AZI2","PubChem SID":"SID364002447","BNIP3L mRNA, set 1":0.0933,"NDRG1 mRNA, set 1":0.1}
{"Gene":"NOP10","PubChem SID":"SID364001147","BNIP3L mRNA, set 1":0.233,"NDRG1 mRNA, set 1":0.255}
{"Gene":"INHA","PubChem SID":"SID363993392","BNIP3L mRNA, set 1":0.0548,"NDRG1 mRNA, set 1":0.304}
{"Gene":"ARV1","PubChem SID":"SID364002558","BNIP3L mRNA, set 1":0.0889,"NDRG1 mRNA, set 1":0.134}
{"Gene":"FOXD3","PubChem SID":"SID363998121","BNIP3L mRNA, set 1":0.0665,"NDRG1 mRNA, set 1":0.125}
{"Gene":"CD3G","PubChem SID":"SID363991410","BNIP3L mRNA, set 1":0.0925,"NDRG1 mRNA, set 1":0.199}
{"Gene":"LTC4S","PubChem SID":"SID363992182","BNIP3L mRNA, set 1":0.101,"NDRG1 mRNA, set 1":0.222}
{"Gene":"TAS2R46","PubChem SID":"SID364004891","BNIP3L mRNA, set 1":0.164,"NDRG1 mRNA, set 1":0.103}
{"Gene":"POLR2D","PubChem SID":"SID363995760","BNIP3L mRNA, set 1":0.117,"NDRG1 mRNA, set 1":0.406}
{"Gene":"PLVAP","PubChem SID":"SID364003597","BNIP3L mRNA, set 1":0.3,"NDRG1 mRNA, set 1":0.426}
{"Gene":"UHMK1","PubChem SID":"SID364004620","BNIP3L mRNA, set 1":0.0694,"NDRG1 mRNA, set 1":0.053}

Copied from the listing for reference:
{"Gene":"INHA","PubChem SID":"SID363993392","BNIP3L mRNA, set 1":0.0548,"NDRG1 mRNA, set 1":0.304}
{"Gene":"ARV1","PubChem SID":"SID364002558","BNIP3L mRNA, set 1":0.0889,"NDRG1 mRNA, set 1":0.134}
{"Gene":"FOXD3","PubChem SID":"SID363998121","BNIP3L mRNA, set 1":0.0665,"NDRG1 mRNA, set 1":0.125}
{"Gene":"CD3G","PubChem SID":"SID363991410","BNIP3L mRNA, set 1":0.0925,"NDRG1 mRNA, set 1":0.199}
{"Gene":"LTC4S","PubChem SID":"SID363992182","BNIP3L mRNA, set 1":0.101,"NDRG1 mRNA, set 1":0.222}

Additional reagents follow.
{"Gene":"DNAH11","PubChem SID":"SID363994841","BNIP3L mRNA, set 1":0.078,"NDRG1 mRNA, set 1":0.147}
{"Gene":"THSD7B","PubChem SID":"SID364005185","BNIP3L mRNA, set 1":0.0604,"NDRG1 mRNA, set 1":0.143}
{"Gene":"PSMB8","PubChem SID":"SID363995163","BNIP3L mRNA, set 1":0.083,"NDRG1 mRNA, set 1":0.288}
{"Gene":"DIO2","PubChem SID":"SID363992083","BNIP3L mRNA, set 1":0.148,"NDRG1 mRNA, set 1":2.06}
{"Gene":"NFX1","PubChem SID":"SID363993676","BNIP3L mRNA, set 1":0.0503,"NDRG1 mRNA, set 1":0.11}
{"Gene":"OLA1","PubChem SID":"SID363998451","BNIP3L mRNA, set 1":0.128,"NDRG1 mRNA, set 1":0.0822}
{"Gene":"CCN4","PubChem SID":"SID363994941","BNIP3L mRNA, set 1":0.392,"NDRG1 mRNA, set 1":0.649}
{"Gene":"ZNF416","PubChem SID":"SID364000608","BNIP3L mRNA, set 1":0.138,"NDRG1 mRNA, set 1":0.644}
{"Gene":"SECISBP2L","PubChem SID":"SID363999043","BNIP3L mRNA, set 1":0.0872,"NDRG1 mRNA, set 1":0.292}
{"Gene":"SPATA31H1","PubChem SID":"SID364003860","BNIP3L mRNA, set 1":0.371,"NDRG1 mRNA, set 1":0.454}
{"Gene":"STON1","PubChem SID":"SID363997637","BNIP3L mRNA, set 1":0.129,"NDRG1 mRNA, set 1":0.335}
{"Gene":"GBE1","PubChem SID":"SID363991494","BNIP3L mRNA, set 1":0.108,"NDRG1 mRNA, set 1":0.268}
{"Gene":"SCML1","PubChem SID":"SID363997517","BNIP3L mRNA, set 1":0.118,"NDRG1 mRNA, set 1":0.0535}
{"Gene":"AKT1","PubChem SID":"SID363996089","BNIP3L mRNA, set 1":0.0982,"NDRG1 mRNA, set 1":0.127}
{"Gene":"AKT1","PubChem SID":"SID363996090","BNIP3L mRNA, set 1":0.0697,"NDRG1 mRNA, set 1":0.275}
